Results taken from PMC10721157.
Results are given in words; binding and its absence hold for the method and conditions named. Binding can be weak; no strength is given. Where a sequence is shown, tags or fusion partners need not be part of it.

Amino acid sequences for entries named in this document (tags omitted). A change or cut given only in a name is not applied to a line headed by its entry.
UniProt P14060: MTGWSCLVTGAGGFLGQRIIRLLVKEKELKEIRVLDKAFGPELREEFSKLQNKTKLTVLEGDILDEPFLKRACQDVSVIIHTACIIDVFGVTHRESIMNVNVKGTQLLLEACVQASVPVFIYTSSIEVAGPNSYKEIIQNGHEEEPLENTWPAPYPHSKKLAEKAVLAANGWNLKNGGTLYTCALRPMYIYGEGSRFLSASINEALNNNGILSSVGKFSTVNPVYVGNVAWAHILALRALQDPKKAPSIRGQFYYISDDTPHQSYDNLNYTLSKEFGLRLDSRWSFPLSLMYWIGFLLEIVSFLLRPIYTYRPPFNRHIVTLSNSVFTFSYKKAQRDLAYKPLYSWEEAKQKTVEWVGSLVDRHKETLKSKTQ

Target: GST-3βHSD1 (human) (UniProt P14060)
Test: pull-down; GST-3βHSD1 on glutathione resin in PBS overnight; MBP-UBE3D added for 2 hours at 4°C; washed with NP-40 lysis buffer (50 mM Tris-HCl pH 7.6, 150 mM NaCl, 5 mM EDTA, 1% NP-40); immunoblotting; both purified

binding: binds
B1: MBP-UBE3D (enzyme, UniProt Q7Z6J8 1-389)
chain: MAASAAETRVFLEVRGQLQSALLILGEPKEGGMPMNISIMPSSLQMKTPEGCTEIQLPAEVRLVPSSCRGLQFVVGDGLHLRLQTQAKLGTKLISMFNQSSQTQECCTFYCQSCGEVIIKDRKLLRVLPLPSENWGALVGEWCCHPDPFANKSLHPQENDCFIGDSFFLVNLRTSLWQQRPELSPVEMCCVSSDNHCKLEPKANTKVICKRCKVMLGETVSSETTKFYMTEIIIQSSERSFPIIPRSWFVQSVIAQCLVQLSSARSTFRFTIQGQDDKVYILLWLLNSDSLVIESLRNSKYIKKFPLLENTFKADSSSAWSAVKVLYQPCIKSRNEKLVSLWESDISVHPLTLPSATCLELLLILSKSNANLPSSLRRVNSFQVAFLKM
